{
  "source": "patent US11993579B1",
  "about": "“3-(1-(3-(dimethylamino)propyl)-4,5-diphenyl-1h-imidazol-2-yl)pyridin-4-ol as an anti-microbial compound” (KING FAISAL UNIVERSITY, priority 2023, dated 2024)",
  "key": {"[1]": {"system": "Candida albicans", "assay": "Anti-microbial activity by agar dilution, Candida albicans", "type": "cell-based", "experimental": "(§1) The antibacterial properties of the synthesized compounds were studied by the method of agar dilution. Test solutions of each compound was prepared in a concentration of 1% using dimethylformamide as a solvent. Then the test solutions were diluted in a physiological solution to obtain the final experimental dilutions of 1:100, 1:200, 1:400, and 1:800. The effect of these substances was compared with furacillin in a controllable study. The testing microbes used were gram positive bacteria St. Aereus, gram negative bacteria E. Coli, and Ps. aeruginosa and Candida albicans fungi. The experiments used for this survey were a meat-pentonlu agar (EPA) for cultivation of bacteria and a Saburo environment for fungi. Each experiment used 1 mL of test solution on each plate for 500 min. Next, 2 drops of emulsified test solution with microbes feel were added. All experimental samples were taken from the agar after 10, 40, 60 minutes in the environment on the basis of Patrk planted. Bacteria were cultivated at a temperature of 37° C. for 1 day and the mushroom was kept in a thermostat for […] at a temperature of 28° C. Then results were checked."}, "[2]": {"system": "Ps. Aeroqonaza", "assay": "Anti-microbial activity by agar dilution, Ps. Aeroqonaza", "type": "cell-based, Ps. aeruginosa", "experimental": "as §1"}, "[3]": {"system": "St. Aereus", "assay": "Anti-microbial activity by agar dilution, St. Aereus", "type": "cell-based", "experimental": "as §1"}, "[4]": {"system": "E. Coli", "assay": "Anti-microbial activity by agar dilution, E. Coli", "type": "cell-based", "experimental": "as §1"}, "[5]": {"settings": "dilution rate 1:100, exposure time 10 min"}, "[6]": {"settings": "dilution rate 1:100, exposure time 20 min"}, "[7]": {"settings": "dilution rate 1:100, exposure time 40 min"}, "[8]": {"settings": "dilution rate 1:100, exposure time 60 min"}, "[9]": {"settings": "dilution rate 1:200, exposure time 10 min"}, "[10]": {"settings": "dilution rate 1:200, exposure time 20 min"}, "[11]": {"settings": "dilution rate 1:200, exposure time 40 min"}, "[12]": {"settings": "dilution rate 1:200, exposure time 60 min"}, "[13]": {"settings": "dilution rate 1:400, exposure time 10 min"}, "[14]": {"settings": "dilution rate 1:400, exposure time 20 min"}, "[15]": {"settings": "dilution rate 1:400, exposure time 40 min"}, "[16]": {"settings": "dilution rate 1:400, exposure time 60 min"}, "[17]": {"settings": "dilution rate 1:800, exposure time 10 min"}, "[18]": {"settings": "dilution rate 1:800, exposure time 20 min"}, "[19]": {"settings": "dilution rate 1:800, exposure time 40 min"}, "[20]": {"settings": "dilution rate 1:800, exposure time 60 min"}},
  "note": "For at least one compound, name, drawing or mass did not settle the structure.",
  "data": [
    {"smiles": "NC(=O)N/N=C/c1ccc([N+](=O)[O-])o1", "note": "[Furacilin]", "values": [
      {"measurement": "antimicrobial activity Candida albicans", "setting": "[1]; [5]", "result": "−"},
      {"measurement": "antimicrobial activity Candida albicans", "setting": "[1]; [6]", "result": "−"},
      {"measurement": "antimicrobial activity Candida albicans", "setting": "[1]; [7]", "result": "+"},
      {"measurement": "antimicrobial activity Candida albicans", "setting": "[1]; [8]", "result": "+"},
      {"measurement": "antimicrobial activity Candida albicans", "setting": "[1]; [9]", "result": "+"},
      {"measurement": "antimicrobial activity Candida albicans", "setting": "[1]; [10]", "result": "+"},
      {"measurement": "antimicrobial activity Candida albicans", "setting": "[1]; [11]", "result": "+"},
      {"measurement": "antimicrobial activity Candida albicans", "setting": "[1]; [12]", "result": "+"},
      {"measurement": "antimicrobial activity Candida albicans", "setting": "[1]; [13]", "result": "+"},
      {"measurement": "antimicrobial activity Candida albicans", "setting": "[1]; [14]", "result": "+"},
      {"measurement": "antimicrobial activity Candida albicans", "setting": "[1]; [15]", "result": "+"},
      {"measurement": "antimicrobial activity Candida albicans", "setting": "[1]; [16]", "result": "+"},
      {"measurement": "antimicrobial activity Candida albicans", "setting": "[1]; [17]", "result": "+"},
      {"measurement": "antimicrobial activity Candida albicans", "setting": "[1]; [18]", "result": "+"},
      {"measurement": "antimicrobial activity Candida albicans", "setting": "[1]; [19]", "result": "+"},
      {"measurement": "antimicrobial activity Candida albicans", "setting": "[1]; [20]", "result": "+"},
      {"measurement": "antimicrobial activity Ps. Aeroqonaza", "setting": "[2]; [5]", "result": "+"},
      {"measurement": "antimicrobial activity Ps. Aeroqonaza", "setting": "[2]; [6]", "result": "+"},
      {"measurement": "antimicrobial activity Ps. Aeroqonaza", "setting": "[2]; [7]", "result": "+"},
      {"measurement": "antimicrobial activity Ps. Aeroqonaza", "setting": "[2]; [8]", "result": "+"},
      {"measurement": "antimicrobial activity Ps. Aeroqonaza", "setting": "[2]; [9]", "result": "+"},
      {"measurement": "antimicrobial activity Ps. Aeroqonaza", "setting": "[2]; [10]", "result": "+"},
      {"measurement": "antimicrobial activity Ps. Aeroqonaza", "setting": "[2]; [11]", "result": "+"},
      {"measurement": "antimicrobial activity Ps. Aeroqonaza", "setting": "[2]; [12]", "result": "+"},
      {"measurement": "antimicrobial activity Ps. Aeroqonaza", "setting": "[2]; [13]", "result": "+"},
      {"measurement": "antimicrobial activity Ps. Aeroqonaza", "setting": "[2]; [14]", "result": "+"},
      {"measurement": "antimicrobial activity Ps. Aeroqonaza", "setting": "[2]; [15]", "result": "+"},
      {"measurement": "antimicrobial activity Ps. Aeroqonaza", "setting": "[2]; [16]", "result": "+"},
      {"measurement": "antimicrobial activity Ps. Aeroqonaza", "setting": "[2]; [17]", "result": "+"},
      {"measurement": "antimicrobial activity Ps. Aeroqonaza", "setting": "[2]; [18]", "result": "+"},
      {"measurement": "antimicrobial activity Ps. Aeroqonaza", "setting": "[2]; [19]", "result": "+"},
      {"measurement": "antimicrobial activity Ps. Aeroqonaza", "setting": "[2]; [20]", "result": "+"},
      {"measurement": "antimicrobial activity St. Aereus", "setting": "[3]; [5]", "result": "−"},
      {"measurement": "antimicrobial activity St. Aereus", "setting": "[3]; [6]", "result": "−"},
      {"measurement": "antimicrobial activity St. Aereus", "setting": "[3]; [7]", "result": "−"},
      {"measurement": "antimicrobial activity St. Aereus", "setting": "[3]; [8]", "result": "−"},
      {"measurement": "antimicrobial activity St. Aereus", "setting": "[3]; [9]", "result": "+"},
      {"measurement": "antimicrobial activity St. Aereus", "setting": "[3]; [10]", "result": "+"},
      {"measurement": "antimicrobial activity St. Aereus", "setting": "[3]; [11]", "result": "+"},
      {"measurement": "antimicrobial activity St. Aereus", "setting": "[3]; [12]", "result": "+"},
      {"measurement": "antimicrobial activity St. Aereus", "setting": "[3]; [13]", "result": "+"},
      {"measurement": "antimicrobial activity St. Aereus", "setting": "[3]; [14]", "result": "+"},
      {"measurement": "antimicrobial activity St. Aereus", "setting": "[3]; [15]", "result": "+"},
      {"measurement": "antimicrobial activity St. Aereus", "setting": "[3]; [16]", "result": "+"},
      {"measurement": "antimicrobial activity St. Aereus", "setting": "[3]; [17]", "result": "+"},
      {"measurement": "antimicrobial activity St. Aereus", "setting": "[3]; [18]", "result": "+"},
      {"measurement": "antimicrobial activity St. Aereus", "setting": "[3]; [19]", "result": "+"},
      {"measurement": "antimicrobial activity St. Aereus", "setting": "[3]; [20]", "result": "+"},
      {"measurement": "antimicrobial activity E. Coli", "setting": "[4]; [5]", "result": "−"},
      {"measurement": "antimicrobial activity E. Coli", "setting": "[4]; [6]", "result": "−"},
      {"measurement": "antimicrobial activity E. Coli", "setting": "[4]; [7]", "result": "−"},
      {"measurement": "antimicrobial activity E. Coli", "setting": "[4]; [8]", "result": "−"},
      {"measurement": "antimicrobial activity E. Coli", "setting": "[4]; [9]", "result": "+"},
      {"measurement": "antimicrobial activity E. Coli", "setting": "[4]; [10]", "result": "+"},
      {"measurement": "antimicrobial activity E. Coli", "setting": "[4]; [11]", "result": "+"},
      {"measurement": "antimicrobial activity E. Coli", "setting": "[4]; [12]", "result": "+"},
      {"measurement": "antimicrobial activity E. Coli", "setting": "[4]; [13]", "result": "+"},
      {"measurement": "antimicrobial activity E. Coli", "setting": "[4]; [14]", "result": "+"},
      {"measurement": "antimicrobial activity E. Coli", "setting": "[4]; [15]", "result": "+"},
      {"measurement": "antimicrobial activity E. Coli", "setting": "[4]; [16]", "result": "+"},
      {"measurement": "antimicrobial activity E. Coli", "setting": "[4]; [17]", "result": "+"},
      {"measurement": "antimicrobial activity E. Coli", "setting": "[4]; [18]", "result": "+"},
      {"measurement": "antimicrobial activity E. Coli", "setting": "[4]; [19]", "result": "+"},
      {"measurement": "antimicrobial activity E. Coli", "setting": "[4]; [20]", "result": "+"}
    ]}
  ]
}
